Here are results for 69 sequences from PubChem BioAssay AID1347426 (Functional Genomics Laboratory (NCATS/FGL), 2020).

About 1,400 (4.5%) of roughly 31,000 sequences were called active.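 How the source made its calls: active means median seed-adjusted z-score above 1 or below -1; inactive means the rest.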 This is one part of the list.

A short description of the assay: Novel Modifiers of Survival Motor Neuron (SMN) Protein: Gene Identification via Genome-wide siRNA Screen.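 Further: luminescence tracks full-length SMN protein made from the SMN2 reporter.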 As to conditions: HEK293T SMN2-luciferase reporter, siRNA knockdown, 72 h; actives lie on both sides. A digest of the protocol:
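siRNA screen, 10418 genes ×3 siRNAs; 1 pmol/well, lipid reverse transfection into HEK293T SMN2-luc reporter line. 72 h, 37 °C, 5% CO2; ONE-Glo readout. Data: neg-ctrl normalized, log10, MAD; hit = MAD >1.0 or < -1.0.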
For the sequence GGGUACUAAAUUCAGCUAATT against SOAT1, the median seed-adjusted z-score is inactive: 0.409. The same measure for GGUCUACAGUCAGUAUUCATT against ZNF616: inactive: -0.0874; for GGAUAAAGUUCUUACUCAATT against SMAD1: inactive: -0.0282; for CGCCUGUUCUACGAGAAGATT against ULK1: inactive: -0.214. Consider CAACCCAAGAAGGAAUUAATT against PAK3, for which the median seed-adjusted z-score was inactive: 0. On to CAACCAAUCAGAACCAUAATT against BTN3A3, for which the median seed-adjusted z-score is inactive: 0.886. On to GACACUAUCUGGUCAGGUATT against NCAM1, for which the median seed-adjusted z-score is inactive: 0. The same measure for UGUUAUAACUUCACCAAUATT against CCL2: inactive: 0.651; for GUUAAAAGAUGGUCAAGAATT against SLC22A5: inactive: 0.349; for CCUAAAAAGUGACCAUCUATT against ZNF747: inactive: 0.379.

As for CAUUGACCAUACUCCAGAATT against PPM1K, the median seed-adjusted z-score is inactive: 0.154. The result for GCAAGACCAUCAACAAGAUTT against CHRNE reads inactive: 0.349. The result for GUGAUGACCUGGAUAGUGATT against LRRK2 reads inactive: -0.671; that for CGGUUGGAUCCAUUACUCATT against OSBPL8, inactive: 0.231; that for CAAGGAAAAUUUGUGCAAATT against RBMS2, inactive: -0.918. For the sequence GAAGCGCAGUCACCUGAAATT against PROC, the median seed-adjusted z-score is inactive: -0.228. GCAUGAACUGAAACCCAAUTT against SMURF1: the median seed-adjusted z-score was active: -1.4.

Consider CAACUGAUGAGUAUCUAGATT against MRCL3, for which the median seed-adjusted z-score is inactive: -0.00909.

For the sequence CCUUCACCCUUGUCCAAAATT against GPX2, the median seed-adjusted z-score is inactive: -0.21. GAUUGUCGAGUGGACCAAATT against TRPM2: the median seed-adjusted z-score was inactive: 0.226.

For the sequence UCUGGCUUAUUAUAACUAUTT against ACOT2, the median seed-adjusted z-score was inactive: 0.578. The same measure for GCAAAUGGGUAUCCACAGATT against COL16A1: inactive: -0.0496; for CGCUCUACCUGAUCUGCUATT against SLC43A2: inactive: -0.202; for CCAGUUCGCUAUCACCAAATT against MATN1: inactive: -0.271. The same measure for CCUCAUGUCGGGCAUCUUATT against EGR4: inactive: 0.

In the case of GGACCAUCCUCUCACUACUTT against NINJ2, the median seed-adjusted z-score is inactive: 0.133. As for CUCCCGGACUUGUUCAACATT against TTLL4, the median seed-adjusted z-score was inactive: -0.256. The same measure for GGAUCACUCUAACAUCGGATT against PDE1C: inactive: 0.157. The same measure for GAACUGAUCAUUAACGAGATT against PAK2: inactive: 0.122. Take GAAGUGUGGUUAAAGAGCATT against TPCN2: the median seed-adjusted z-score was inactive: -0.341.

Consider GCCUUUCAUGAGUAUCUAUTT against GPR82, for which the median seed-adjusted z-score is inactive: -0.83.

As for GGAAACUGUCAUUUUUAUUTT against BTN2A2, the median seed-adjusted z-score is inactive: -0.0599.

Consider GGACAUCUUUAAAGUACGATT against CR1, for which the median seed-adjusted z-score was inactive: 0.143. As for GAAUACUUUUUCUCCCGAATT against PSMA5, the median seed-adjusted z-score is inactive: -0.824. For the sequence CCCAAUAACUUAAAGACCUTT against ICK, the median seed-adjusted z-score was inactive: 0.638. As for GACAAACUCGUAACGAUGATT against FLG, the median seed-adjusted z-score was inactive: 0.221. The result for GGAGAGUCAUAAGCAACACTT against OLFM1 reads inactive: -0.103; that for GGCUCGAGAUUUAUACGAUTT against HECTD1, inactive: -0.0588.

GAAUAGGUCUUAUACAACATT against RNF11: the median seed-adjusted z-score is inactive: -0.365. For GUGGAAGGCUUACAACCCATT against ALOX15B, the median seed-adjusted z-score was inactive: 0.156. Take CUACGACAAUUACCGGCGATT against RASGRP1: the median seed-adjusted z-score is inactive: -0.392. On to CUGCUUGACUGGUUUGAGATT against PIM2, for which the median seed-adjusted z-score is inactive: 0.00597. Consider UGUGAUUGCCCUGCACAAATT against CXCR5, for which the median seed-adjusted z-score is inactive: 0.0406. The result for UGGAGAAGGCGGUUCCGUUTT against IRX4 reads inactive: 0.0613. In the case of GCUAAUUACAGCUUACAGATT against DPP6, the median seed-adjusted z-score was inactive: 0.0505. Turning to GGUCAUAGAUAGCAUCAUATT against HAL, the median seed-adjusted z-score is inactive: 0.

As to GUAUGGUAGCGAUAAGUUUTT against ST3GAL6, the median seed-adjusted z-score was inactive: -0.548.

Take GGGAAAGAGGUGAUCAACATT against RNASEH1: the median seed-adjusted z-score was inactive: -0.0205.

With CGACGUAAAGUUCAACAGATT against PROX1, the median seed-adjusted z-score is inactive: -0.372. For CCCUAGAGGAUGUAAAGCATT against DHX29, the median seed-adjusted z-score was inactive: -0.28. Consider CAACCAAUGAAUUUCCGAATT against PCSK5, for which the median seed-adjusted z-score is inactive: -0.158. On to GAAACCCGGUGAAAAGAAATT against VARS2, for which the median seed-adjusted z-score is inactive: 0.288. Regarding GGCCUAUCCUGAUUCUGAUTT against RND2, the median seed-adjusted z-score was inactive: -0.0613. Consider CUGUAGCAACAAUAUCGUATT against SLIT2, for which the median seed-adjusted z-score was inactive: -0.592. For CGUGGGAUAUGUUGACGGATT against BTNL3, the median seed-adjusted z-score is inactive: 0. Take CCACCAUACCUGUCACAGATT against PITRM1: the median seed-adjusted z-score is inactive: -0.0959. For “GACUUUCUCCGAUACAUGATT against ST6GALNAC1”, the median seed-adjusted z-score was inactive: -0.854. Turning to CCGUGGUUCUGUACAAUGUTT against SLC9A3, the median seed-adjusted z-score was inactive: 0.422. With GGGCUACGUGUUCAACUCATT against ALPI, the median seed-adjusted z-score is inactive: 0. As for GCACAAGCGUGUAAAAGAATT against SIRT4, the median seed-adjusted z-score is inactive: 0.623. GAAUGACUACAAGUGGUUUTT against CTSC: the median seed-adjusted z-score is inactive: 0. For the sequence GCAAUGAACUCAACAGCUATT against ANGPTL7, the median seed-adjusted z-score is inactive: 0. As for GCUGGUACAUGACAUCCGATT against GGT7, the median seed-adjusted z-score is inactive: 0.135.

GGACCUACACUUUUCUCUUTT against FAM53B: the median seed-adjusted z-score was inactive: -0.00535. CCGCCGUUUUAAAAUCCCATT against DPP9: the median seed-adjusted z-score is inactive: -0.224. AACUCUUCAGGUGAAGAUATT against SLC8A2: the median seed-adjusted z-score is inactive: 0. Regarding CAAUAUGGAAAGAGAUAUATT against PLCG2, the median seed-adjusted z-score is inactive: 0. As to GCUUGCCCACUACAAUUUUTT against TARS2, the median seed-adjusted z-score was inactive: -0.0143. AACGCACUCUUCUACGUCATT against NTSR1: the median seed-adjusted z-score is active: -1.1.
